# Results from one PubChem assay

By UniProt entry, the sequences of proteins in these tests, tags left out.
UniProt P04062, whole entry, target on record: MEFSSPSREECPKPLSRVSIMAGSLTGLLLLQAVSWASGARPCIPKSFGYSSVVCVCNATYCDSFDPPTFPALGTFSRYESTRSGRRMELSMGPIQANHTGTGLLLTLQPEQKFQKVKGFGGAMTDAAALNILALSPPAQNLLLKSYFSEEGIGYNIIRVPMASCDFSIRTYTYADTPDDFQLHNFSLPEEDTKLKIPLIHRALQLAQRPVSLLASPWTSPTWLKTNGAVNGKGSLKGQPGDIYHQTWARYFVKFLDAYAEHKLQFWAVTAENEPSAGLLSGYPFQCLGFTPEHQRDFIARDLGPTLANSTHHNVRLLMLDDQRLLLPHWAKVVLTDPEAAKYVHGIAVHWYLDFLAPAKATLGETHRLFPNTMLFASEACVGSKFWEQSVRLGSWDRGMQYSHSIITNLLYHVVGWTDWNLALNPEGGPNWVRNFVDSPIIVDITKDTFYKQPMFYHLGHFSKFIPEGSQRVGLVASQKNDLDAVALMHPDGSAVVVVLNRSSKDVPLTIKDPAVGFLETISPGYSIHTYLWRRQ

Data taken from PubChem BioAssay AID360, deposited by NCATS (2006).

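Purified human glucocerebrosidase was tested for inhibition by reading red fluorescence from a resorufin glucoside substrate after 20 minutes at room temperature.
Each compound was run as a titration series spanning about 0.6 nM up to 50 µM final.
The number is the fitted half-maximal concentration (AC50); a lower value means a more potent inhibitor.
The record treats a '>' qualifier as no measurable activity (inactive); no explicit numeric cut-off is stated.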

Values are in µM.
All entries here are filed as inactive.
Only inactive entries are shown; hits are left out here.

- O=C(CSc1nc2ccccc2c(=O)n1CCC(=O)N1CCCCC1)NCc1ccccc1 : Potency >76.9 µM
- CCOC(=O)N1CCN(C(=O)CN2C(=O)COc3ccc(C)cc32)CC1 : Potency >76.9 µM
- O=C(O)CNC(=O)c1ccccc1NC(=O)c1ccco1 : Potency >76.9 µM
- CCCCOc1ccc(/C(O)=C2/C(=O)C(=O)N(CCCOC)C2c2ccncc2)cc1 (stereo not drawn) : Potency >76.9 µM
- CC(C)CCn1c(N2CCC(C(N)=O)CC2)nc2c1c(=O)[nH]c(=O)n2C : Potency >76.9 µM
- Cn1c(CSc2nc3ccccc3s2)nc2ccccc21 : Potency >76.9 µM
- Cc1c(O)ccc(C(=O)CN2C(=O)c3ccccc3C2=O)c1O : Potency >76.9 µM
- COc1ccc(C(=O)Cn2nnc(-c3ccccc3NC(=O)c3ccco3)n2)cc1 : Potency >76.9 µM
- COc1ccc(Cl)c(Cn2c(NCC(C)O)nc3c2c(=O)n(C)c(=O)n3C)c1 (stereo not drawn) : Potency >76.9 µM
- O=C(c1ccccc1)c1nnc(-c2ccncc2)o1 : Potency >76.9 µM
- Cc1cc2oc(=O)cc(CN3CCCCC3)c2cc1C(C)C : Potency >76.9 µM
- O=C(CSc1nnc2scc(-c3ccccc3)n12)NCc1ccco1 : Potency >76.9 µM
- Cc1ccc(NC(C(N)=O)c2c(C)[nH]c(=O)[nH]c2=O)cc1 (stereo not drawn) : Potency >76.9 µM
- COC(=O)C1CCN(C(=O)Cc2ccc(Br)cc2)CC1 : Potency >76.9 µM
- O=C(CC1SC(N2CCCCC2)=NC1=O)Nc1cccc(C(=O)O)c1 (stereo not drawn) : Potency >76.9 µM
- O=C(CSc1nnc(CNc2ccc(Cl)cc2)o1)Nc1nc2c(s1)CCCC2 : Potency >76.9 µM
- O=C(CCS(=O)(=O)c1ccc(Br)cc1)N1CCN(c2ccccc2F)CC1 : Potency >76.9 µM
- O=C(C1CCN(S(=O)(=O)c2ccc(-n3cnnn3)cc2)CC1)N1CCN(c2ccccc2)CC1 : Potency >76.9 µM
- Cc1ccc2c(N)c(C)ccc2c1 : Potency >76.9 µM
- CCOC(=O)C(Cc1ccccc1)NC(=O)CNC(C)=O (stereo not drawn) : Potency >76.9 µM
- Cc1ccc(NC2c3ncccc3C(=O)N2c2ccccc2C)cc1C (stereo not drawn) : Potency >76.9 µM
- CCn1c(=O)c(-c2ccccc2)c(O)c2ccccc21 : Potency >76.9 µM
- COCCNC(=O)CN(C)S(=O)(=O)c1ccc2c(c1)OCCO2 : Potency >76.9 µM
- O=c1c2ccccc2nc(-c2ccccc2)n1Cc1ccco1 : Potency >76.9 µM
- Cn1c(=O)oc2cc(S(=O)(=O)N3CCOCC3)ccc21 : Potency >76.9 µM
- Cc1nc(N2CCN(Cc3ccc4c(c3)OCO4)CC2)c2oc3ccccc3c2n1 : Potency >76.9 µM
- CCS(=O)(=O)NCCc1csc(C)n1 : Potency >76.9 µM
- O=C1CCC2CCCCC2(O)O1 (stereo not drawn) : Potency >76.9 µM
- CCOc1ccc(NC(=O)N(C2CCCCC2)C(C)c2ccncc2)cc1 (stereo not drawn) : Potency >76.9 µM
- Cc1ccsc1C1C=C(c2cccc(Br)c2)Nc2ncnn21 (stereo not drawn) : Potency >76.9 µM
- CCOC(=O)N1CCN(C(=O)c2ccccc2-c2ccccc2)CC1 : Potency >76.9 µM
- CCn1nnc(NC(=O)C(C)Oc2ccc(Cl)cc2Cl)n1 (stereo not drawn) : Potency >76.9 µM
- CCOc1ccc(NC2=NC(C(=O)NCc3ccccc3)CC(=O)N2)cc1 (stereo not drawn) : Potency >76.9 µM
- O=C(N1CCCCC1)N1CCN(c2ccc(Cl)cc2)CC1 : Potency >76.9 µM
- Cc1ccc(-n2c(SCC(=O)NCc3ccco3)nnc2-c2cccnc2)c(C)c1 : Potency >76.9 µM
- CCC(C)C(NC(=O)OC(C)(C)C)C(=O)NC(C(=O)N1CCCC1C(N)=O)C(C)CC (stereo not drawn) : Potency >76.9 µM
- Cn1c(Cl)nc2ccccc21 : Potency >76.9 µM
- N#CC1=C(N)Oc2n[nH]c(-c3cccs3)c2C1c1cccnc1 (stereo not drawn) : Potency >76.9 µM
- CC12CCC(=O)N1c1ccccc1C(=O)N2c1ccccc1 (stereo not drawn) : Potency >76.9 µM
- COC(=O)c1ccc(NC(=O)Cn2nc(SC)n(N)c2=S)cc1 : Potency >76.9 µM
- CCC(C)C(N)C(=O)NC(CCC(=O)OCc1ccccc1)C(N)=O (stereo not drawn) : Potency >76.9 µM
- CCOC(=O)c1c(C)[nH]c(C=Nc2ccccc2)c1O : Potency >76.9 µM
- COc1ccc2c(c1)C(=O)OC2CC(=O)O (stereo not drawn) : Potency >76.9 µM
- Cc1cccc(Cn2c(=O)c3c(nc4n3CCN4Cc3ccco3)n(C)c2=O)c1 : Potency >76.9 µM
- O=C(O)C1CCN(C(=O)c2ccccc2C(=O)N2CCC(C(=O)O)CC2)CC1 : Potency >76.9 µM
- C=CCN(CC=C)S(=O)(=O)c1ccc(F)cc1 : Potency >76.9 µM
- CCCCCNC(=O)Cc1ccc(OC)cc1 : Potency >76.9 µM
- CN(CC(=O)Nc1ccc(C#N)cc1)Cc1ccc(Cl)cc1 : Potency >76.9 µM
- O=C(COC(=O)C12CC3CC(CC(O)(C3)C1)C2)N1CCN(S(=O)(=O)c2ccc(Cl)cc2)CC1 : Potency >76.9 µM
- COC(=O)c1ccccc1NC(=O)Cn1ccnc1 : Potency >76.9 µM
- CCS(=O)c1ccccc1C(=O)O (stereo not drawn) : Potency >76.9 µM
- O=S(=O)(c1ccc(Br)s1)N1CCN(c2ccccc2)CC1 : Potency >76.9 µM
- CCCOc1ccc(/C(O)=C2/C(=O)C(=O)N(CCN(CC)CC)C2c2ccncc2)cc1 (stereo not drawn) : Potency >76.9 µM

Once more, the final 3:

{"compound": "CCS(=O)c1ccccc1C(=O)O", "stereo": "stereo not drawn", "Potency (µM)": ">76.9"}
{"compound": "O=S(=O)(c1ccc(Br)s1)N1CCN(c2ccccc2)CC1", "Potency (µM)": ">76.9"}
{"compound": "CCCOc1ccc(/C(O)=C2/C(=O)C(=O)N(CCN(CC)CC)C2c2ccncc2)cc1", "stereo": "stereo not drawn", "Potency (µM)": ">76.9"}